Experimental data reported in EP0318860B1, “Substituted alkylamine derivatives” (BANYU PHARMACEUTICAL CO., LTD., priority 1987, dated 1989).
At least one compound was matched to its structure with a doubt left.

Chains of the proteins cited; added tags and fusions are not shown. Lines headed by an entry give the natural chain unless they say otherwise; changes in a name come on top.
UniProt P52020: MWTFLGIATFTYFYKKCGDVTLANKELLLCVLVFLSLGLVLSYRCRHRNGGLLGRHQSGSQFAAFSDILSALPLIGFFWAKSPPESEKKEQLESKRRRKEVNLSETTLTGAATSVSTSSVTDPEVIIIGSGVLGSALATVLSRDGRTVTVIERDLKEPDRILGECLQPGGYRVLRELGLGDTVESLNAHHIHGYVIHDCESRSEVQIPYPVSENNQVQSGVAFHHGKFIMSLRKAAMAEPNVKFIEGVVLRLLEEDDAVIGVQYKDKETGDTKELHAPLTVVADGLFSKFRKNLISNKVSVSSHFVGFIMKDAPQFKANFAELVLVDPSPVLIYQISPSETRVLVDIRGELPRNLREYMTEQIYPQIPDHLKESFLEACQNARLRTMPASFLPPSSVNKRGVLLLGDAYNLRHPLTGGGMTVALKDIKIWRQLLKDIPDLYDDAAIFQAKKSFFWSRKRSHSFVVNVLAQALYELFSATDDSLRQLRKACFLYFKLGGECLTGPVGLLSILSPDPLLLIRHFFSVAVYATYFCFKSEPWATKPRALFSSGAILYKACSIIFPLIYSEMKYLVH

Biological target: T1, rat squalene epoxidase (Rattus norvegicus, UniProt P52020)
T1 construct: Livers were extracted and homogenized; from tissue; host or cells: liver of SD-strain female rats; microsomes solubilized with 2 % Triton X-100, 105000 x g supernatant
Assay: Squalene epoxidase inhibiting activity (3H-squalene to squalene-2,3-epoxide, solubilized liver microsome fraction)
Type: biochemical
Settings: 8 µM 3H-squalene, 37 °C, 30 minutes, read-out: 50 % inhibitory concentration (IC50)
Method: The rat squalene epoxidase was prepared by the method described in J. Biol. Chem., vol.
SD-strain female rats were killed by exsanguination. Livers were extracted and homogenized with in the presence of 2 volumes of 0.1M Tris-HCl buffer (pH 7.5). The homogenate was centrifuged at 9750 Xg for 10 minutes. The supernatant fraction was further centrifuged at 105000 Xg for 1 hour. The sediment was washed with 0.1M Tris-HCl buffer (pH 7.5), and then centrifuged at 105000 Xg for 1 hour. The microsomes obtained were suspended in 0.1M Tris-HCl buffer (pH 7.5) so that the amount of proteins was 40 mg/ml, and under ice cooling, the suspension was stirred in the presence of 2 % Triton X-100 to solubilize the enzyme. […]
Three microliters of a dimethyl sulfoxide solution of a test drug was added to a solution composed of 0.2 ml of the squalene epoxidase fraction prepared in (1) [proteins 0.4 mg, 0.5 % Triton X-100, […] Tris-HCl buffer (pH 7.5)], 100 µM FAD, 1 mM NADPH, 1 mM EDTA and 8 µM ³H-squalene-Tween 80 emulsion to adjust the total amount of the solution to 0.3 ml. […] The position of the resulting ³H-squalene-2,3-epoxide on TLC was determined using ergosterol acetate as a marker, and the ³H-squalene-2,3-epoxide portion on the TLC was cut off. The TLC strip was immersed in a toluene-type scintillator, and measured by a liquid scintillation counter.

**Q.** With CN(C/C=C/C#CC(C)(C)C)Cc1coc(/C=C/c2ccccc2)n1 [Compound 118, N-[(E)-6,6-dimethyl-2-hepten-4-ynyl]-N-methyl-2-[(E)-styryl]-4-oxazolylmethylamine] as the compound, how does the IC50 read?
**A.** 290 nM
